Measurements: the supplement of paper PMC5836539
± gives the standard deviation of the averaged measurements. Most values lie within the scatter of the assay; repeated measurements hardly agree.

Chains of the proteins cited; added tags and fusions are not shown. Lines headed by an entry give the natural chain unless they say otherwise; changes in a name come on top.
UniProt O60664: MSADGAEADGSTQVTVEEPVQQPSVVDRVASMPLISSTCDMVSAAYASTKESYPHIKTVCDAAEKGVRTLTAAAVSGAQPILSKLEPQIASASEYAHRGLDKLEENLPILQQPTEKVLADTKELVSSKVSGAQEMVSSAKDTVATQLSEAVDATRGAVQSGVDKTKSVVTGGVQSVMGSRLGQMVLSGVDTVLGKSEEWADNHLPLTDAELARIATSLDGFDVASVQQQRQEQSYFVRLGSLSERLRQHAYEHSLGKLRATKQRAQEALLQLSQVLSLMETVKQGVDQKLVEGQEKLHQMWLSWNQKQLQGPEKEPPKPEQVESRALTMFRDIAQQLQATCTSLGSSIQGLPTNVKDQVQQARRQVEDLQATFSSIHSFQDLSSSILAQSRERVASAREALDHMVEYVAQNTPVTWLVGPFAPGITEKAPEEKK
UniProt O75376, whole entry, looked up: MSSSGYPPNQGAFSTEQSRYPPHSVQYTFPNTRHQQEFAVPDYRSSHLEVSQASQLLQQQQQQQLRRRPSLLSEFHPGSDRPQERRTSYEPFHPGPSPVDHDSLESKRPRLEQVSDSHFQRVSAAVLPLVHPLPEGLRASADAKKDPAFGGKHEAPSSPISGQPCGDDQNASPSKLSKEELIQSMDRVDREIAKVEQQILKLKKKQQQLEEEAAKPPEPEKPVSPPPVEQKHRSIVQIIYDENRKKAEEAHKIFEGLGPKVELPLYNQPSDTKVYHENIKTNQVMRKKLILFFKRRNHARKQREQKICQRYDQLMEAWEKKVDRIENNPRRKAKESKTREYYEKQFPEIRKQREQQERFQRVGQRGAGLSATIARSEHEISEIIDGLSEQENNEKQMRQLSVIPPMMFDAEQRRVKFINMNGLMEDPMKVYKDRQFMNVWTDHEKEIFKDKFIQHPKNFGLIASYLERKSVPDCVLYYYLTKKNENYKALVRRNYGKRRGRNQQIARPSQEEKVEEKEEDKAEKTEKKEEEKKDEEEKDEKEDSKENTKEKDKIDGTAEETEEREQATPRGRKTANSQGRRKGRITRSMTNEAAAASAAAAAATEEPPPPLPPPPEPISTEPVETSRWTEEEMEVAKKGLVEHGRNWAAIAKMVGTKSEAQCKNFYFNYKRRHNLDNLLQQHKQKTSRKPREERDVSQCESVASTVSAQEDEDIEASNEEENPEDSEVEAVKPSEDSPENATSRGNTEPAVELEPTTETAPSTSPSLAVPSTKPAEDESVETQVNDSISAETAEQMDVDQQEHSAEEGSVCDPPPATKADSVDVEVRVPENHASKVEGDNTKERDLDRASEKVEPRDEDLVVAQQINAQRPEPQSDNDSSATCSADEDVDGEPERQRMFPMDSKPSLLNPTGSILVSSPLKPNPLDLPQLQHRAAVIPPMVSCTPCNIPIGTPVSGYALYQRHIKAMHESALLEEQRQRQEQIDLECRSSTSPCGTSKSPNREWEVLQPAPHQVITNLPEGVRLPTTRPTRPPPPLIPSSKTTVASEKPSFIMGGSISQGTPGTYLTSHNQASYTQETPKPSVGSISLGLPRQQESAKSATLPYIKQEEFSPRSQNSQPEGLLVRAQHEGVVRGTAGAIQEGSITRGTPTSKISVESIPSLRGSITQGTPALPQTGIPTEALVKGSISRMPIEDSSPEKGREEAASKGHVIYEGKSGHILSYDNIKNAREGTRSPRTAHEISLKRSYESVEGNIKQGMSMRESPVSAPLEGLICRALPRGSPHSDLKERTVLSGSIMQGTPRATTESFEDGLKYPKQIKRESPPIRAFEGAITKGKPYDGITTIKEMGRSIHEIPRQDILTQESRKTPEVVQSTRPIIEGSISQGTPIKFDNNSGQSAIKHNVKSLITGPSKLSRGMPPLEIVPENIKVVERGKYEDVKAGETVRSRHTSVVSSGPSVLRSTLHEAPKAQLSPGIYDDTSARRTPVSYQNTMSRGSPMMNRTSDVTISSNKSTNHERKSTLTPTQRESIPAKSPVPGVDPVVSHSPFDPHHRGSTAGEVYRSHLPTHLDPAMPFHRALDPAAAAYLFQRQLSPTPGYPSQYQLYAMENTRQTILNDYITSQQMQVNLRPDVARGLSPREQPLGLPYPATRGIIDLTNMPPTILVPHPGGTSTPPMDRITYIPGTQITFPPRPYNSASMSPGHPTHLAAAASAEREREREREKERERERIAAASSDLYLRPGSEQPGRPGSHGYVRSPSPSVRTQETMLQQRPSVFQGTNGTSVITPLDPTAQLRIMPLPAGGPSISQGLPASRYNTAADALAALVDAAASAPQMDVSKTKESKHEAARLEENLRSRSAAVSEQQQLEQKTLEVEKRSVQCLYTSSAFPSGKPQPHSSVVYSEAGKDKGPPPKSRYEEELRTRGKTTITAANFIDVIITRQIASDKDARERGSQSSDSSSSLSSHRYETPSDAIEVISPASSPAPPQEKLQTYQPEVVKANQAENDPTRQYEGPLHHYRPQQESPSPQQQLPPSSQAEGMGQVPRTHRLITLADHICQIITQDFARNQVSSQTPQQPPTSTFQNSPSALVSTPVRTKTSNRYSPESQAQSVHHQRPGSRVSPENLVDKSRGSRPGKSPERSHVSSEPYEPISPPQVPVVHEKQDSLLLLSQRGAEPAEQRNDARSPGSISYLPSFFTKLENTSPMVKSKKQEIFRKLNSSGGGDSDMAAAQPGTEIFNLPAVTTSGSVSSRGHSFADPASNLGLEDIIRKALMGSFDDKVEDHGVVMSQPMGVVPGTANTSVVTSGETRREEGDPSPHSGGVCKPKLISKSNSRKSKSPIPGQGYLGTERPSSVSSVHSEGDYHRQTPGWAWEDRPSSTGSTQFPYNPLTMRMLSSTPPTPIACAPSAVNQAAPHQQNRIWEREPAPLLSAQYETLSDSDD
UniProt O94804: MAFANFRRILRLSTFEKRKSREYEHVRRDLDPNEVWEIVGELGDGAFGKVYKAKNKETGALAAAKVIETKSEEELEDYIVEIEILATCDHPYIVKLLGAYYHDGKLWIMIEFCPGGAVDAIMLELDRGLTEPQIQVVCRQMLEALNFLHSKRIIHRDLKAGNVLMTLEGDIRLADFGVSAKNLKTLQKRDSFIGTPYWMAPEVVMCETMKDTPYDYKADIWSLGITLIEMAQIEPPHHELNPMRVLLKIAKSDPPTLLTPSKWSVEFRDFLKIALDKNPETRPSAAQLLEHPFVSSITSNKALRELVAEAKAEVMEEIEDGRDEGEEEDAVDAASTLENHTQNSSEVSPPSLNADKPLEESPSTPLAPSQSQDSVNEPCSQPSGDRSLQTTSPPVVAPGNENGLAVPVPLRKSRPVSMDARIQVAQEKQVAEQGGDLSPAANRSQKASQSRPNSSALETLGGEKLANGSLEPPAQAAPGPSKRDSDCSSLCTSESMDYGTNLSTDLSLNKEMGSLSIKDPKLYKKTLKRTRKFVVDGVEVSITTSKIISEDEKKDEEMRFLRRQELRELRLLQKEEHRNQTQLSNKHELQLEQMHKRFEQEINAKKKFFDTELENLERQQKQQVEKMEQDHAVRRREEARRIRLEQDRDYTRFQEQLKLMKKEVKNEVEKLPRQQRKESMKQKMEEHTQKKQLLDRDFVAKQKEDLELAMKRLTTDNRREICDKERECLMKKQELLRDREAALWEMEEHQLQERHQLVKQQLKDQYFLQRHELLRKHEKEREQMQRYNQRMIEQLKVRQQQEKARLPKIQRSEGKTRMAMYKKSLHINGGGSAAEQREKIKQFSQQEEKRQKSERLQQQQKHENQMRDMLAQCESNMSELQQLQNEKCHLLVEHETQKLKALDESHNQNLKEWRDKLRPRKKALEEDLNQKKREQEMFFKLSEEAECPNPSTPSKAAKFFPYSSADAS
UniProt O94826, whole entry: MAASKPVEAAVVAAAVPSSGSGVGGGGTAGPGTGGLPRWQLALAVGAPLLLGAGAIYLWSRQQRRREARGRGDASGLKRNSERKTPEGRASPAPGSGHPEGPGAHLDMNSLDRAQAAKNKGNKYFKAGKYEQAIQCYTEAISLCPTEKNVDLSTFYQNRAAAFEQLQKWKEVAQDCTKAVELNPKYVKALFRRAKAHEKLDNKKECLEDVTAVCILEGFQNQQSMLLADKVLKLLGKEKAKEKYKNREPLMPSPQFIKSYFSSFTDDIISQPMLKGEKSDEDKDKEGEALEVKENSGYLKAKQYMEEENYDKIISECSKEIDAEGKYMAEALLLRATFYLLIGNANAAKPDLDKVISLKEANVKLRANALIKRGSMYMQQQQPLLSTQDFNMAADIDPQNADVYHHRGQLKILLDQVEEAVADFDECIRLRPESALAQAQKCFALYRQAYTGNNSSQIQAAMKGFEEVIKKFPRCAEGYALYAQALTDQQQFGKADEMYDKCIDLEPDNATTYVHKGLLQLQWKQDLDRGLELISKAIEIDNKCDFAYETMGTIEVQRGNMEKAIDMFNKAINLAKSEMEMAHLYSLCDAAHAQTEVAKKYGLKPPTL
UniProt O94880: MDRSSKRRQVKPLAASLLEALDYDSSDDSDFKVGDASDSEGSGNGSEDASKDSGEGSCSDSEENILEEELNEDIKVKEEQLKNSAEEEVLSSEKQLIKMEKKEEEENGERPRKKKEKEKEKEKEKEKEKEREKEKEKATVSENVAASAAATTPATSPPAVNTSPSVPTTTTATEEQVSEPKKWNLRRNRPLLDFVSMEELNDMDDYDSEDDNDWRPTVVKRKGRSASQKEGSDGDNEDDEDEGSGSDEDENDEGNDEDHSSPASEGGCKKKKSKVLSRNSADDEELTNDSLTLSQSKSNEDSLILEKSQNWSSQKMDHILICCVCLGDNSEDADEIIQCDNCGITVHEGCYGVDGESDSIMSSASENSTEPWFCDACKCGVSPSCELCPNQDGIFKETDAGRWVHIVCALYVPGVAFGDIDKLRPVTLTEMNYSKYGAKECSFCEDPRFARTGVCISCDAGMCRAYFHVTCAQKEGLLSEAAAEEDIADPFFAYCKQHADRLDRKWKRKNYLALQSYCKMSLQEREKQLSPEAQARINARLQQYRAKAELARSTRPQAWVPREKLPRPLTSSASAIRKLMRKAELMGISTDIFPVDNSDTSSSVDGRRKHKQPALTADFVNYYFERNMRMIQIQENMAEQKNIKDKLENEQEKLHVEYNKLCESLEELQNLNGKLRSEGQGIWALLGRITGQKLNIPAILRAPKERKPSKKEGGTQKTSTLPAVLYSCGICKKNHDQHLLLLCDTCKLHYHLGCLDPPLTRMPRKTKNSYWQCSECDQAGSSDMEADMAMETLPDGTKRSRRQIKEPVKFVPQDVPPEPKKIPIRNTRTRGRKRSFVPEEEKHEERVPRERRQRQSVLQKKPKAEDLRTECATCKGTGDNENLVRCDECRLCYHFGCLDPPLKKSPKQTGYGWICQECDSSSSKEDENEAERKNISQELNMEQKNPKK
UniProt P08559, whole entry, looked up: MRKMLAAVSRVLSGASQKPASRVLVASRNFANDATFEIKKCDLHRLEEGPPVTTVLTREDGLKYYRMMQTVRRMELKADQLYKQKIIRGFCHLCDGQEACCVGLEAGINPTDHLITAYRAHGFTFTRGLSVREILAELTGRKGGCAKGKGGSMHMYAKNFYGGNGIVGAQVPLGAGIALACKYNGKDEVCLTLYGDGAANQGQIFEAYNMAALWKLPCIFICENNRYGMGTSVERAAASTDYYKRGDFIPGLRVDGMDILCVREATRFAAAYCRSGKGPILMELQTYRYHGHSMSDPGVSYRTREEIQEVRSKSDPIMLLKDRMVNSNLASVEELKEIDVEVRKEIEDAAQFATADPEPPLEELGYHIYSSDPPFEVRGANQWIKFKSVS
UniProt P16383: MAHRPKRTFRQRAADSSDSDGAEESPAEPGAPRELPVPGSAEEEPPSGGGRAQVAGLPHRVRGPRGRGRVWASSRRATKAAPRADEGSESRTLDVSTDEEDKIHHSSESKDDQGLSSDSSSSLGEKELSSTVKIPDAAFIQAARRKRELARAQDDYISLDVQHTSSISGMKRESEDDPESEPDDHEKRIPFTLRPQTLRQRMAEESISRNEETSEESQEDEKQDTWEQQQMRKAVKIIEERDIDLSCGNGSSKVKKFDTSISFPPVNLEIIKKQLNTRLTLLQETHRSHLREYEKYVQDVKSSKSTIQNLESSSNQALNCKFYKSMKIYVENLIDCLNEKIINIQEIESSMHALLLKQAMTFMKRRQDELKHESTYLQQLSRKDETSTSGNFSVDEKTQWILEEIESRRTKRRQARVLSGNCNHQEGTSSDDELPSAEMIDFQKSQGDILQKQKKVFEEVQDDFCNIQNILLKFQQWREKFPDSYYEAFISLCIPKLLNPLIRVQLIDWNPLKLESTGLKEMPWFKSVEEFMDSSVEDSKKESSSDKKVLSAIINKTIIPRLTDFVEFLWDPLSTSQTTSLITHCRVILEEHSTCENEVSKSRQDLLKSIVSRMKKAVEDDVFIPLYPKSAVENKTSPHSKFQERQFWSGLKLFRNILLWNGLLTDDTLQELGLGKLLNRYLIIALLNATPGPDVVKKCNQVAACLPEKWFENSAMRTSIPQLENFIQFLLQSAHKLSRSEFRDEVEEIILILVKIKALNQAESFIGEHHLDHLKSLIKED

The targets below were run with CC[C@@H](C)Nc1cc(C(=O)N[C@H]2C[C@H]3CC[C@@H](C2)N3c2ccc(C(=O)C3CC3)cn2)c(C)cc1C(N)=O [XL888] (assay: phosphopeptide melting temperature shift (XL888 minus DMSO); higher = stabilised by drug treatment). Details: 100 µM; treatment time 2 h; layout: intact cells; SK-Mel 28.
Method: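 Phospho-TPP in intact SK-Mel 28 cells treated with 100 uM XL888 or DMSO for 2 h, heated at 10 temperatures (37-67 C) for 3 min, soluble fraction TMT10plex-labelled and TiO2 phospho-enriched. Melting curves were fitted per phosphopeptide; the value is the melting point difference (drug minus vehicle) in each of two biological replicates.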

Target	phosphopeptide melting temperature shift [°C]
UniProt O60664_phosphosite_130 (phosphosite position: 130)	2.1 ± 0.67
UniProt O60716-24_phosphosite_129 (phosphosite position: 129)	0.087
UniProt O75030-11_phosphosite_245 (phosphosite position: 245)	2.5 ± 2.2
UniProt O75179-4_phosphosite_1474 (phosphosite position: 1474)	0.276
UniProt O75376-2_phosphosite_158 (phosphosite position: 158)	2.74 ± 4.5
UniProt O75376-2_phosphosite_172 (phosphosite position: 172)	3.3 ± 6.2
UniProt O75382-3_phosphosite_348 (phosphosite position: 348)	0.514
UniProt O75396_phosphosite_137 (phosphosite position: 137)	-0.847
UniProt O75410-3_phosphosite_81 (phosphosite position: 81)	3.99 ± 0.58
UniProt O75494-2_phosphosite_155 (phosphosite position: 155)	6.38
UniProt O75494-2_phosphosite_157 (phosphosite position: 157)	6.38
UniProt O75592-2_phosphosite_2645 (phosphosite position: 2645)	1.96 ± 0.55
UniProt O75592-2_phosphosite_2649 (phosphosite position: 2649)	1.96 ± 0.55
UniProt O75674-3_phosphosite_246 (phosphosite position: 246)	1.95 ± 0.99
UniProt O75717-2_phosphosite_284 (phosphosite position: 284)	1.65 ± 1
UniProt O75717-2_phosphosite_745 (phosphosite position: 745)	0.684
UniProt O75909-1_phosphosite_329 (phosphosite position: 329)	1.19 ± 0.043
UniProt O75909-1_phosphosite_340 (phosphosite position: 340)	-0.0318
UniProt O76094-2_phosphosite_560 (phosphosite position: 560)	2.24 ± 0.66

Target	phosphopeptide melting temperature shift [°C]
UniProt O94804_phosphosite_13 (phosphosite position: 13)	0.194 ± 0.19
UniProt O94804_phosphosite_20 (phosphosite position: 20)	1.21
UniProt O94804_phosphosite_191 (phosphosite position: 191)	1.97 ± 0.26
UniProt O94804_phosphosite_438 (phosphosite position: 438)	2 ± 2
UniProt O94804_phosphosite_514 (phosphosite position: 514)	1.32 ± 0.94
UniProt O94826_phosphosite_91 (phosphosite position: 91)	1.09 ± 0.34
UniProt O94842-3_phosphosite_152 (phosphosite position: 152)	0.478
UniProt O94842-3_phosphosite_156 (phosphosite position: 156)	0.478
UniProt O94854-2_phosphosite_666 (phosphosite position: 666)	0.84 ± 1
UniProt O94864-2_phosphosite_106 (phosphosite position: 106)	-0.495
UniProt O94874-2_phosphosite_393 (phosphosite position: 393)	0.861 ± 0.83
UniProt O94880_phosphosite_208 (phosphosite position: 208)	-1.18
UniProt O94929-2_phosphosite_311 (phosphosite position: 311)	2.99 ± 2
UniProt O94979-3_phosphosite_532 (phosphosite position: 532)	0.822 ± 2
UniProt O94979-3_phosphosite_1049 (phosphosite position: 1049)	3.71
UniProt O95104-2_phosphosite_154 (phosphosite position: 154)	-1.25
UniProt O95218-2_phosphosite_193 (phosphosite position: 193)	0.912
UniProt O95359-2_phosphosite_21 (phosphosite position: 21)	1.69
UniProt O95359-2_phosphosite_25 (phosphosite position: 25)	1.69

Target	phosphopeptide melting temperature shift [°C]
UniProt O95453-2_phosphosite_558 (phosphosite position: 558)	0.374 ± 0.43
UniProt O95628-3_phosphosite_415 (phosphosite position: 415)	0.835
UniProt O95819-2_phosphosite_608 (phosphosite position: 608)	0.253
UniProt O95819-2_phosphosite_872 (phosphosite position: 872)	-0.382
UniProt P05771-2_phosphosite_641 (phosphosite position: 641)	-0.509
UniProt P07910-2_phosphosite_240 (phosphosite position: 240)	5.01
UniProt P07910-2_phosphosite_247 (phosphosite position: 247)	5.31
UniProt P08559-3_phosphosite_201 (phosphosite position: 201)	0.935
UniProt P08559-3_phosphosite_269 (phosphosite position: 269)	-0.422
UniProt P11137-3_phosphosite_281 (phosphosite position: 281)	2.42 ± 3.1
UniProt P11137-3_phosphosite_1786 (phosphosite position: 1786)	6.3 ± 0.54
UniProt P11274-2_phosphosite_459 (phosphosite position: 459)	1.28 ± 0.27
UniProt P13807-2_phosphosite_577 (phosphosite position: 577)	-1.43 ± 0.44
UniProt P13807-2_phosphosite_581 (phosphosite position: 581)	2.19 ± 1.1
UniProt P13807-2_phosphosite_589 (phosphosite position: 589)	-0.644
UniProt P13807-2_phosphosite_593 (phosphosite position: 593)	1.1 ± 1.1
UniProt P15923-2_phosphosite_379 (phosphosite position: 379)	0.257
UniProt P16383_phosphosite_174 (phosphosite position: 174)	0.606 ± 1.4
UniProt P16383_phosphosite_428 (phosphosite position: 428)	-1.14

A run of entries from the list above:
Target	phosphopeptide melting temperature shift [°C]
UniProt P07910-2_phosphosite_247 (phosphosite position: 247)	5.31
UniProt P08559-3_phosphosite_201 (phosphosite position: 201)	0.935
UniProt P08559-3_phosphosite_269 (phosphosite position: 269)	-0.422
UniProt P11137-3_phosphosite_281 (phosphosite position: 281)	2.42 ± 3.1
